## Drug screen on melanoma cell lines: apoptosis marker

Values as published with doi:10.1371/journal.pone.0140310, rounded.

Every entry is a combination with SNS-314 at 0.004 µM: O=C(Nc1cccc(Cl)c1)Nc1ncc(CCNc2ncnc3ccsc23)s1

Compounds and concentrations:
nilutamide: CC1(C)NC(=O)N(c2ccc([N+](=O)[O-])c(C(F)(F)F)c2)C1=O at 5 µM
cisplatin: N.N.[Cl][Pt][Cl] at 8 µM
docetaxel: CC(=O)O[C@@]12CO[C@@H]1C[C@H](O)[C@@]1(C)C(=O)[C@H](O)C3=C(C)[C@@H](OC(=O)[C@H](O)[C@@H](NC(=O)OC(C)(C)C)c4ccccc4)C[C@@](O)([C@@H](OC(=O)c4ccccc4)[C@H]21)C3(C)C at 0.0005 µM
CP-690550: C[C@@H]1CCN(C(=O)CC#N)C[C@@H]1N(C)c1ncnc2[nH]ccc12 at 5 µM
MK-2206: NC1(c2ccc(-c3nc4ccn5c(=O)[nH]nc5c4cc3-c3ccccc3)cc2)CCC1 at 2 µM
IMD-0354: O=C(Nc1cc(C(F)(F)F)cc(C(F)(F)F)c1)c1cc(Cl)ccc1O at 0.08 µM
PF-562271: CN(c1ncccc1CNc1nc(Nc2ccc3c(c2)CC(=O)N3)ncc1C(F)(F)F)S(C)(=O)=O at 0.4 µM
tozasertib: Cc1cc(Nc2cc(N3CCN(C)CC3)nc(Sc3ccc(NC(=O)C4CC4)cc3)n2)n[nH]1 at 0.03 µM
CX-4945: O=C(O)c1ccc2c(c1)nc(Nc1cccc(Cl)c1)c1ccncc12 at 2 µM
XAV939: Oc1nc(-c2ccc(C(F)(F)F)cc2)nc2c1CSCC2 at 10 µM
FH535: Cc1cc([N+](=O)[O-])ccc1NS(=O)(=O)c1cc(Cl)ccc1Cl at 5 µM
etoposide: COc1cc([C@@H]2c3cc4c(cc3[C@@H](O[C@@H]3O[C@@H]5CO[C@@H](C)O[C@H]5[C@H](O)[C@H]3O)[C@H]3COC(=O)[C@H]23)OCO4)cc(OC)c1O at 0.1 µM
TCS401: O=C(O)C(=O)Nc1sc2c(c1C(=O)O)CCNC2 at 8.33 µM
BI-D1870: CC(C)CCN1c2nc(Nc3cc(F)c(O)c(F)c3)ncc2N(C)C(=O)C1C (stereo not shown) at 1 µM
Src-I1: COc1cc2ncnc(Nc3ccc(Oc4ccccc4)cc3)c2cc1OC at 10 µM
perifosine: CCCCCCCCCCCCCCCCCCOP(=O)([O-])OC1CC[N+](C)(C)CC1 at 2 µM
vorinostat: O=C(CCCCCCC(=O)Nc1ccccc1)NO at 0.4 µM
everolimus: CO[C@H]1C[C@@H]2CC[C@@H](C)[C@@](O)(O2)C(=O)C(=O)N2CCCC[C@H]2C(=O)O[C@H]([C@H](C)C[C@@H]2CC[C@@H](OCCO)[C@H](OC)C2)CC(=O)[C@H](C)/C=C(\C)[C@@H](O)[C@@H](OC)C(=O)[C@H](C)C[C@H](C)/C=C/C=C/C=C/1C at 0.1 µM
L-779450: Oc1cc(-c2nc(-c3ccccc3)[nH]c2-c2ccncc2)ccc1Cl at 1 µM
nutlin-3: COc1ccc(C2=N[C@@H](c3ccc(Cl)cc3)[C@@H](c3ccc(Cl)cc3)N2C(=O)N2CCNC(=O)C2)c(OC(C)C)c1 at 0.5 µM
YM155: COCC[n+]1c2c(n(Cc3cnccn3)c1C)C(=O)c1ccccc1C2=O at 0.002 µM
SU6656: CN(C)S(=O)(=O)c1ccc2c(c1)/C(=C/c1cc3c([nH]1)CCCC3)C(=O)N2 at 2 µM
RKI-983: C[C@@H](N)c1ccc(C(=O)Nc2ccnc3[nH]ccc23)cc1 at 2 µM
CHIR-265: Cn1c(Nc2ccc(C(F)(F)F)cc2)nc2cc(Oc3ccnc(-c4ncc(C(F)(F)F)[nH]4)c3)ccc21 at 0.4 µM
PF-04217903: OCCn1cc(-c2cnc3nnn(Cc4ccc5ncccc5c4)c3n2)cn1 at 5 µM
BMS-536924: Cc1cc(N2CCOCC2)cc2[nH]c(-c3c(NC[C@@H](O)c4cccc(Cl)c4)cc[nH]c3=O)nc12 at 1 µM
GW9662: O=C(Nc1ccccc1)c1cc([N+](=O)[O-])ccc1Cl at 10 µM
ruxolitinib: N#CC[C@H](C1CCCC1)n1cc(-c2ncnc3[nH]ccc23)cn1 at 5 µM
GW441756: Cn1cc(/C=C2\C(=O)Nc3cccnc32)c2ccccc21 at 2 µM
NVP-BEZ235: Cn1c(=O)n(-c2ccc(C(C)(C)C#N)cc2)c2c3cc(-c4cnc5ccccc5c4)ccc3ncc21 at 0.02 µM
vincristine: CC[C@]1(O)C[C@H]2CN(CCc3c([nH]c4ccccc34)[C@@](C(=O)OC)(c3cc4c(cc3OC)N(C=O)[C@H]3[C@@](O)(C(=O)OC)[C@H](OC(C)=O)[C@]5(CC)C=CCN6CC[C@]43[C@@H]65)C2)C1 at 0.0005 µM
dasatinib: Cc1nc(Nc2ncc(C(=O)Nc3c(C)cccc3Cl)s2)cc(N2CCN(CCO)CC2)n1 at 0.02 µM
BI-78D3: O=c1[nH]nc(Sc2ncc([N+](=O)[O-])s2)n1-c1ccc2c(c1)OCCO2 at 1 µM
bortezomib: CC(C)C[C@H](NC(=O)[C@H](Cc1ccccc1)NC(=O)c1cnccn1)B(O)O at 0.005 µM

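The test systems are human melanoma cell lines, treated with two drugs together for 72 h and then stained and imaged. Values are the share of nuclei positive for cleaved PARP as a percentage of the same share in the DMSO control: 100 is the control level, higher means more apoptosis. Every drug was used at one fixed concentration, the higher of two screened. No replicate spread is given; individual values may be noisy. Basal and induced levels differ widely between cell lines.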 An unselected part of the screen is shown.

MK-2206 gave IST-MEL1: 53.8; RPMI-7951: 178.
L-779450 gave IST-MEL1: 86.0; RPMI-7951: 138.
bortezomib gave IST-MEL1: 1580; RPMI-7951: 1430.
docetaxel gave IST-MEL1: 147; RPMI-7951: 217.
nutlin-3 gave IST-MEL1: 265; RPMI-7951: 67.5.
CHIR-265 gave IST-MEL1: 258; RPMI-7951: 176.
etoposide gave IST-MEL1: 65.9; RPMI-7951: 15.7.
CX-4945 gave IST-MEL1: 195; RPMI-7951: 275.
IMD-0354 gave IST-MEL1: 133; RPMI-7951: 235.
tozasertib gave IST-MEL1: 227; RPMI-7951: 263.
TCS401 gave IST-MEL1: 39.3; RPMI-7951: 89.7.
everolimus gave IST-MEL1: 58.0; RPMI-7951: 300.
RKI-983 gave IST-MEL1: 183; RPMI-7951: 91.6.
BI-78D3 gave IST-MEL1: 140; RPMI-7951: 148.
vincristine gave IST-MEL1: 222; RPMI-7951: 604.
perifosine gave IST-MEL1: 121; RPMI-7951: 442.
BI-D1870 gave IST-MEL1: 82.1; RPMI-7951: 154.
nilutamide gave IST-MEL1: 180; RPMI-7951: 50.3.
Src-I1 gave IST-MEL1: 68.4; RPMI-7951: 169.
SU6656 gave IST-MEL1: 251; RPMI-7951: 294.
ruxolitinib gave IST-MEL1: 693; RPMI-7951: 294.
BMS-536924 gave IST-MEL1: 114; RPMI-7951: 76.1.
XAV939 gave IST-MEL1: 107; RPMI-7951: 137.
GW9662 gave IST-MEL1: 241; RPMI-7951: 189.
PF-04217903 gave IST-MEL1: 208; RPMI-7951: 213.
FH535 gave IST-MEL1: 249; RPMI-7951: 29.9.
NVP-BEZ235 gave IST-MEL1: 128; RPMI-7951: 52.8.
vorinostat gave IST-MEL1: 190; RPMI-7951: 105.
dasatinib gave IST-MEL1: 252; RPMI-7951: 283.
GW441756 gave IST-MEL1: 78.2; RPMI-7951: 44.8.
CP-690550 gave IST-MEL1: 93.9; RPMI-7951: 63.9.
PF-562271 gave IST-MEL1: 164; RPMI-7951: 124.
YM155 gave IST-MEL1: 180; RPMI-7951: 120.
cisplatin gave IST-MEL1: 44.9; RPMI-7951: 76.5.

Some entries from above, unchanged:

- GW9662 | IST-MEL1: 241; RPMI-7951: 189
- BI-D1870 | IST-MEL1: 82.1; RPMI-7951: 154
- cisplatin | IST-MEL1: 44.9; RPMI-7951: 76.5